PubChem BioAssay AID504764 | Drosophila RNAi Screening Center, 2011

Aim: 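Genes whose knock-down alters Notch-dependent transcription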 (primary screen)
Cells: Drosophila Kc167 cells
Reagent: long dsRNA against Drosophila genes
Time to read-out: about 5 days (4 days dsRNA, then 24 h after transfection)
Challenge: transfection of constitutively active membrane-tethered Notch lacking the extracellular domain, read 24 h later
Detection: 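Firefly luciferase from an E(spl)m3 reporter with active Notch, plus control-promoter and uninduced reporter wells for normalisation; unnormalised counts, duplicate wells a and b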
Direction: induced reporter light, run 1, well a and induced reporter light, run 1, well b: higher = more light from the Notch target reporter with active Notch; control promoter light, run 1, well a and control promoter light, run 1, well b: higher = more light from the viral control promoter (cell number, transfection, viability); uninduced reporter light, run 1, well a: higher = more light from the Notch target reporter without active Notch
Hit rule: 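Wells with low control signal or poorly matching duplicates excluded; duplicates averaged; per source plate, z beyond ±2 for induced/control log2 ratio or beyond ±1.8 for induced/uninduced marks a hit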
Meaning of the calls: active = modifier hit (raised or lowered Notch signal); inactive = not a hit
In all, the deposit lists about 22,000 reagents; shown is a random part of those that have a named target and a result. In the full data, 403 (1.9%) got an active call. 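Unnormalised raw counts per well; ratio z-scores behind the hit calls and whether each hit raises or lowers signal are not deposited.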 Names joined by + are all predicted targets of the reagent. Reagent sequences are not shown. Not given: the amount of reagent.

no.	gene	dsRNA	induced reporter light, run 1, well a	induced reporter light, run 1, well b	control promoter light, run 1, well a	control promoter light, run 1, well b	uninduced reporter light, run 1, well a	outcome
1	CG13308	DRSC09979	1.80e5	2.04e5	2.47e5	1.96e5	11520	inactive
2	CG17198 + CG17197	DRSC15190	1.90e5	2.08e5	2.29e5	1.85e5	14985	inactive
3	CG17198 + CG17197	DRSC15191	1.84e5	2.15e5	2.27e5	2.00e5	14430	inactive
4	ppk16	DRSC02736	1.33e5	1.77e5	87075	1.06e5	21815	inactive
5	wuc	DRSC06152	79980	84230	1.03e5	85570	6588	inactive
6	Wsck	DRSC13682	1.85e5	1.63e5	1.54e5	1.50e5	15295	inactive
7	CG31688	DRSC02682	62620	41710	43930	40980	3645	inactive
8	Elp5	DRSC08547	1.17e5	1.11e5	2.01e5	1.23e5	7535	inactive
9	sktl	DRSC04715	1.60e5	1.58e5	1.24e5	1.46e5	13700	inactive
10	CG12883	DRSC14570	1.81e5	1.45e5	2.33e5	2.22e5	16415	inactive
11	CG9632	DRSC16528	1.80e5	1.85e5	1.76e5	1.97e5	15280	inactive
12	Rab9Fb	DRSC19854	1.25e5	1.06e5	1.85e5	1.70e5	8145	inactive
13	CG13876	DRSC08346	92455	1.19e5	1.77e5	1.55e5	8245	inactive
14	Acbp4	DRSC11023	2.62e5	2.26e5	2.70e5	2.26e5	13490	inactive
15	Snx16	DRSC06984	79030	1.03e5	1.16e5	1.32e5	9360	inactive
16	eater	DRSC15969	1.52e5	1.63e5	1.99e5	1.88e5	14180	inactive
17	eater	DRSC22254						inactive
18	CG31784	DRSC01574	65545	56615	75365	58710	4730	inactive
19	Ama	DRSC12489	1.41e5	1.45e5	98090	77280	11745	inactive
20	otk2	DRSC07303	97075	96800	95060	1.16e5	8765	inactive
21	CG3117	DRSC00568	1.39e5	1.35e5	1.18e5	1.06e5	13330	inactive
22	CG10669	DRSC14261	2.07e5	1.64e5	2.09e5	1.89e5	13785	inactive
23	CG2211	DRSC08559	1.07e5	1.01e5	1.50e5	1.48e5	6845	inactive
24	U3-55K	DRSC05982	79670	85580	87615	84225	7085	inactive
25	CG30485	DRSC06376	86190	91430	1.19e5	1.19e5	9715	inactive

The list goes on; the last 7 above are carried over.
no.	gene	dsRNA	induced reporter light, run 1, well a	induced reporter light, run 1, well b	control promoter light, run 1, well a	control promoter light, run 1, well b	uninduced reporter light, run 1, well a	outcome
19	Ama	DRSC12489	1.41e5	1.45e5	98090	77280	11745	inactive
20	otk2	DRSC07303	97075	96800	95060	1.16e5	8765	inactive
21	CG3117	DRSC00568	1.39e5	1.35e5	1.18e5	1.06e5	13330	inactive
22	CG10669	DRSC14261	2.07e5	1.64e5	2.09e5	1.89e5	13785	inactive
23	CG2211	DRSC08559	1.07e5	1.01e5	1.50e5	1.48e5	6845	inactive
24	U3-55K	DRSC05982	79670	85580	87615	84225	7085	inactive
25	CG30485	DRSC06376	86190	91430	1.19e5	1.19e5	9715	inactive
26	PH4alphaEFB	DRSC14473	1.69e5	1.79e5	2.06e5	2.73e5	13232	inactive
27	PH4alphaEFB	DRSC14950	1.05e5	1.19e5	1.47e5	1.79e5	10170	inactive
28	unc	DRSC20511	1.05e5	1.50e5	1.67e5	2.09e5	12540	inactive
29	CG15111	DRSC21467						inactive
30	parvin	DRSC19468	90495	99675	1.26e5	1.46e5	12140	inactive
31	CngA	DRSC06580	1.64e5	1.01e5	1.08e5	1.04e5	14650	inactive
32	CngA	DRSC07362	1.13e5	1.09e5	1.28e5	1.40e5	11155	inactive
33	tin	DRSC17083	2.64e5	2.05e5	2.35e5	2.69e5	18695	inactive
34	tin	DRSC22853						inactive
35	NSD	DRSC15691	1.41e5	1.44e5	1.85e5	1.69e5	11600	inactive
36	CG10859	DRSC02110	1.89e5	1.96e5	1.95e5	2.13e5	17355	inactive
37	atilla	DRSC02971	1.57e5	1.71e5	1.36e5	1.57e5	11575	inactive
38	CG4752	DRSC04486	2.48e5	2.28e5	2.07e5	2.21e5	17460	inactive
39	Acp65Aa	DRSC09663	2.43e5	1.57e5	2.19e5	1.71e5	7760	inactive
40	CG15880	DRSC00474	1.31e5	1.52e5	97660	59680	9345	inactive
41	mtTFB1 + Ccdc56	DRSC10809	1.21e5	1.06e5	59645	38200	9265	inactive
42	asRNA:CR42547 + CG15674	DRSC04264	65735	52140	49250	61265	2805	inactive
43	GMF	DRSC01928	2.14e5	1.87e5	1.92e5	1.83e5	14710	inactive
44	Sesn	DRSC04101	2.04e5	2.65e5	1.75e5	2.06e5	14645	inactive
45	Sesn	DRSC04102	2.16e5	2.11e5	2.17e5	1.83e5	14580	inactive
46	Sesn	DRSC04103	1.59e5	1.66e5	1.71e5	1.73e5	11475	inactive
47	Tsen34 + Trl	DRSC10014	1.77e5	1.27e5	2.56e5	1.74e5	13780	inactive
48	frm	DRSC09753	1.57e5	1.79e5	1.07e5	79190	13540	inactive
49	CG32447	DRSC11732	1.37e5	1.25e5	77855	80735	9160	inactive
50	CG32447	DRSC11805	1.60e5	1.03e5	97615	79115	9315	inactive
